# Values of other authors, collected in US7585644B2, “Mycopolasma detecting methods and materials” (priority 2003, dated 2009).
# Some entries share one result that the patent states for a list of compounds. For at least one compound, name, drawing or mass did not settle the structure.
# Tested on: mycoplasma
# Conditions: eradication of mycoplasma from cultures; cited from earlier work
compound,measurement,value
CN(C)[C@@H]1C(O)=C(C(N)=O)C(=O)[C@@]2(O)C(O)=C3C(=O)c4c(O)cccc4[C@@](C)(O)[C@H]3C[C@@H]12 [tetracycline],success rates,80-85%
